Experimental data taken from paper doi:10.1101/2020.01.21.914390.
These are yes or no findings as the source states them, for the method shown. In cells and extracts the contact can be indirect. Some entries that bind do so weakly or less than the wild type.

Protein sequences, listed by entry. Tags and fused reporters are not part of them.
UniProt Q6R0C4: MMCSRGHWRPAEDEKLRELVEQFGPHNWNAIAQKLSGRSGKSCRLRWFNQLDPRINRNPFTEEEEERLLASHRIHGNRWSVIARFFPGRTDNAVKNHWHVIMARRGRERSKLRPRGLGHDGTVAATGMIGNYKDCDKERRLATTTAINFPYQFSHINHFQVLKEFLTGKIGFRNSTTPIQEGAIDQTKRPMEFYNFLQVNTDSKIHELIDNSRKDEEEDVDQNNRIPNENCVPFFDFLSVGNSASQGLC
UniProt O80340: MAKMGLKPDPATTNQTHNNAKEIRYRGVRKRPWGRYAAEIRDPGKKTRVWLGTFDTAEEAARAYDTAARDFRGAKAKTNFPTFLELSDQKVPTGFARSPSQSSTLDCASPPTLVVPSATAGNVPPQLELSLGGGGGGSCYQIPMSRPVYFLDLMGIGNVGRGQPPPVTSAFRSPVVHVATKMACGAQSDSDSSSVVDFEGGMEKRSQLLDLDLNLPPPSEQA

Columns and labels:
[1] = target: YN-MYB52 (Arabidopsis thaliana) (UniProt Q6R0C4); assay: split reporter
[2] = target: Flag tagged ERF4 (Arabidopsis thaliana) (UniProt O80340); assay: co-IP

| binding [1] | binding [2] | Substance |
| --- | --- | --- |
| binds | – | ERF4-YC (from UniProt O80340 1-222) |
| – | binds | Myc tagged MYB52 (from UniProt Q6R0C4 1-249) |
